Reference: publication PMC4433056
Results are given in words; binding and its absence hold for the method and conditions named. Binding seen in cells or lysates may run through a third protein. Some results given as binding are weak or reduced against the parent protein; the word gives no strength. For some of these results: Sequences can lack the tags named with a protein.

T1: Bacurd2(Δ1-109), N-terminal truncation mutant (murine) (UniProt O70479)
T1 sequence: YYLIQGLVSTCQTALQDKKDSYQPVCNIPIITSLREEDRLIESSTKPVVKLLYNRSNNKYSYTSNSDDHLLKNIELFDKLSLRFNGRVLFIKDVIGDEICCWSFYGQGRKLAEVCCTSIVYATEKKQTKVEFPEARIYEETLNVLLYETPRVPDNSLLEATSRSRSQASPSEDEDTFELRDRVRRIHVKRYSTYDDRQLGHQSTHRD

T2: Bacurd2(Δ221-316), C-terminal truncation mutant (murine)
T2 sequence: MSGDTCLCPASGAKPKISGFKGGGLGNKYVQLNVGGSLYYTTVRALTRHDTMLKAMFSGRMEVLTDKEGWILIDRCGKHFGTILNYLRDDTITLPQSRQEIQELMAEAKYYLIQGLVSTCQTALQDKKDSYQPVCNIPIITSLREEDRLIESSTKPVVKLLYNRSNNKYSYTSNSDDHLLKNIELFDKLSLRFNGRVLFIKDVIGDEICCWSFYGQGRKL

T3: EGFP-Bacurd2 fusion protein (murine) (UniProt O70479)
T3 sequence: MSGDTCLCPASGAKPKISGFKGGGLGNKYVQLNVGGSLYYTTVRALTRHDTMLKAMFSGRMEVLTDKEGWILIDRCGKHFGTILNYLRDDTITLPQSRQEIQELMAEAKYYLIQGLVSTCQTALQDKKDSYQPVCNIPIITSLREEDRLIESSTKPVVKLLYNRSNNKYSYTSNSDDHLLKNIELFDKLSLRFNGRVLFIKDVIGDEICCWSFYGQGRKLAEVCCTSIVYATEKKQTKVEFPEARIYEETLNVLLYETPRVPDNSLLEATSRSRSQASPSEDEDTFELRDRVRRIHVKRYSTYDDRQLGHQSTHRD

T4: Bacurd2, endogenous in embryonic (E14.5) mouse brain (mouse (endogenous in E14.5 brain)) (UniProt O70479)
T4 sequence: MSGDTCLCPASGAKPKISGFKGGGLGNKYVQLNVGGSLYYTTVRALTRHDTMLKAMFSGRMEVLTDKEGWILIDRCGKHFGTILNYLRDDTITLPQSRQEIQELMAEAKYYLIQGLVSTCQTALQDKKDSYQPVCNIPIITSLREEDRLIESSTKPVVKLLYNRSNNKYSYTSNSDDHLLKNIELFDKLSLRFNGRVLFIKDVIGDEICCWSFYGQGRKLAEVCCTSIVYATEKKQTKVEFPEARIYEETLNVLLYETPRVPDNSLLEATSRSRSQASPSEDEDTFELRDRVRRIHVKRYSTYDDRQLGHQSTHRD


What was measured:
[1] = molecular target: T1, Bacurd2(Δ1-109), N-terminal truncation mutant (murine); experiment: co-IP; epitope-tagged proteins in heterologous cells; reciprocal co-immunoprecipitation
[2] = molecular target: T2, Bacurd2(Δ221-316), C-terminal truncation mutant (murine); experiment: as above
[3] = molecular target: T3, EGFP-Bacurd2 fusion protein (murine); experiment: co-IP; epitope-tagged constructs in transiently transfected HEK293T cells
[4] = molecular target: T4, Bacurd2, endogenous in embryonic (E14.5) mouse brain (mouse (endogenous in E14.5 brain)); experiment: co-IP; E14.5 mouse brain lysate (20 mM Tris pH 7.5, 150 mM NaCl, 1% IGEPAL, 0.1% SDS), mouse anti-Bacurd2 antibody overnight at 4°C, protein A sepharose, immunoblot for Rnd2

| binding [1] | binding [2] | binding [3] | binding [4] | Binder |
| --- | --- | --- | --- | --- |
| binds | no binding | binds |  | FLAG-tagged Rnd2 (protein, UniProt Q9QYM5 1-227) MEGQSGRCKIVVVGDAECGKTALLQVFAKDAYPGSYVPTVFENYTASFEIDKRRIELNMWDTSGSSYYDNVRPLAYPDSDAVLICFDISRPETLDSVLKKWQGETQEFCPNAKVVLVGCKLDMRTDLATLRELSKQRLIPVTHEQGTVLAKQVGAVSYVECSSRSSERSVRDVFHVATVASLGRGHRQLRRTDSRRGLQRSTQLSGRPDRGNEGEMHKDRAKSCNLM |
|  |  |  | binds | Rnd2, endogenous in embryonic (E14.5) mouse brain (protein, UniProt Q9QYM5 1-227) MEGQSGRCKIVVVGDAECGKTALLQVFAKDAYPGSYVPTVFENYTASFEIDKRRIELNMWDTSGSSYYDNVRPLAYPDSDAVLICFDISRPETLDSVLKKWQGETQEFCPNAKVVLVGCKLDMRTDLATLRELSKQRLIPVTHEQGTVLAKQVGAVSYVECSSRSSERSVRDVFHVATVASLGRGHRQLRRTDSRRGLQRSTQLSGRPDRGNEGEMHKDRAKSCNLM |
